# Source: the supplement of paper PMC8728848
# The list shows a part of the results.
# B1: Intelectin 1 (Homo sapiens), Q8WWA0 (protein)
# chain: MNQLSFLLFLIATTRGWSTDEANTYFKEWTCSSSPSLPRSCKEIKDECPSAFDGLYFLRTENGVIYQTFCDMTSGGGGWTLVASVHENDMRGKCTVGDRWSSQQGSKAVYPEGDGNWANYNTFGSAEAATSDDYKNPGYYDIQAKDLGIWHVPNKSPMQHWRNSSLLRYRTDTGFLQTLGHNLFGIYQKYPVKYGEGKCWTDNGPVIPVVYDFGDAQKTASYYSPYGQREFTAGFVQFRVFNNERAANALCAGMRVTGCNTEHHCIGGGGYFPEASPQQCGDFSGFDWSGYGTHVGYSSSREITEAAVLLFYR
# Tests used:
# Assay in all cases: glycan array binding signal (z-score within array); higher = stronger binding
# Conditions in all cases: glycan notation: IUPAC condensed, linker removed
# [1] = molecular target: Fuc(a1-2)Gal6S(b1-4)Glc6S
# In short: (§1)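 Negative Z-scores can be read as non-binding. The Z-score is calculated within each array and then averaged across arrays of one protein sequence at different concentrations or buffers and across linkers. Arrays, 3228 in all, were curated from the Consortium for Functional Glycomics database and kept only where the protein sequence was available.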
# [2] = molecular target: Fuc(a1-2)Gal6S(b1-4)GlcNAc
# In short: as §1
# [3] = molecular target: Fuc(a1-2)[Gal(a1-3)]Gal
# In short: as §1
# [4] = molecular target: Fuc(a1-2)[Gal(a1-3)]Gal(b1-3)GalNAc
# In short: as §1
# [5] = molecular target: Fuc(a1-2)[Gal(a1-3)]Gal(b1-3)GlcNAc
# In short: as §1
# [6] = molecular target: Fuc(a1-2)[Gal(a1-3)]Gal(b1-3)GlcNAc(b1-2)Man(a1-3)[Fuc(a1-2)[Gal(a1-3)]Gal(b1-3)GlcNAc(b1-2)Man(a1-6)]Man(b1-4)GlcNAc(b1-4)GlcNAc
# In short: as §1
# [7] = molecular target: Fuc(a1-2)[Gal(a1-3)]Gal(b1-3)GlcNAc(b1-2)Man(a1-3)[Fuc(a1-2)[Gal(a1-3)]Gal(b1-3)GlcNAc(b1-2)Man(a1-6)]Man(b1-4)GlcNAc(b1-4)[Fuc(a1-6)]GlcNAc
# In short: as §1
# [8] = molecular target: Fuc(a1-2)[Gal(a1-3)]Gal(b1-3)GlcNAc(b1-3)GalNAc
# In short: as §1
# [9] = molecular target: Fuc(a1-2)[Gal(a1-3)]Gal(b1-4)Glc
# In short: as §1
# [10] = molecular target: Fuc(a1-2)[Gal(a1-3)]Gal(b1-4)GlcNAc
# In short: as §1
# [11] = molecular target: Fuc(a1-2)[Gal(a1-3)]Gal(b1-4)GlcNAc(b1-2)Man(a1-3)[Fuc(a1-2)[Gal(a1-3)]Gal(b1-4)GlcNAc(b1-2)Man(a1-6)]Man(b1-4)GlcNAc(b1-4)GlcNAc
# In short: as §1
# [12] = molecular target: Fuc(a1-2)[Gal(a1-3)]Gal(b1-4)GlcNAc(b1-2)Man(a1-3)[Fuc(a1-2)[Gal(a1-3)]Gal(b1-4)GlcNAc(b1-2)Man(a1-6)]Man(b1-4)GlcNAc(b1-4)[Fuc(a1-6)]GlcNAc
# In short: as §1
# [13] = molecular target: Fuc(a1-2)[Gal(a1-3)]Gal(b1-4)GlcNAc(b1-3)GalNAc
# In short: as §1
# [14] = molecular target: Fuc(a1-2)[Gal(a1-3)]Gal(b1-4)[Fuc(a1-3)]Glc
# In short: as §1
# [15] = molecular target: Fuc(a1-2)[Gal(a1-3)]Gal(b1-4)[Fuc(a1-3)]GlcNAc
# In short: as §1
# [16] = molecular target: Fuc(a1-2)[Gal(a1-3)]Gal(b1-4)[Fuc(a1-3)]GlcNAc(b1-3)GalNAc
# In short: as §1
# [17] = molecular target: Fuc(a1-2)[Gal(a1-4)]Gal(b1-4)GlcNAc
# In short: as §1
# [18] = molecular target: Fuc(a1-2)[GalNAc(a1-3)]Gal
# In short: as §1
# [19] = molecular target: Fuc(a1-2)[GalNAc(a1-3)]Gal(b1-3)GalNAc(a1-3)[Fuc(a1-2)]Gal(b1-4)GlcNAc
# In short: as §1
# [20] = molecular target: Fuc(a1-2)[GalNAc(a1-3)]Gal(b1-3)GlcNAc
# In short: as §1
# [21] = molecular target: Fuc(a1-2)[GalNAc(a1-3)]Gal(b1-3)GlcNAc(b1-2)Man(a1-3)[Fuc(a1-2)[GalNAc(a1-3)]Gal(b1-3)GlcNAc(b1-2)Man(a1-6)]Man(b1-4)GlcNAc(b1-4)GlcNAc
# In short: as §1
# [22] = molecular target: Fuc(a1-2)[GalNAc(a1-3)]Gal(b1-3)GlcNAc(b1-2)Man(a1-3)[Fuc(a1-2)[GalNAc(a1-3)]Gal(b1-3)GlcNAc(b1-2)Man(a1-6)]Man(b1-4)GlcNAc(b1-4)[Fuc(a1-6)]GlcNAc
# In short: as §1
# [23] = molecular target: Fuc(a1-2)[GalNAc(a1-3)]Gal(b1-3)GlcNAc(b1-3)GalNAc
# In short: as §1
# [24] = molecular target: Fuc(a1-2)[GalNAc(a1-3)]Gal(b1-4)Glc
# In short: as §1
# [25] = molecular target: Fuc(a1-2)[GalNAc(a1-3)]Gal(b1-4)GlcNAc
# In short: as §1
# [26] = molecular target: Fuc(a1-2)[GalNAc(a1-3)]Gal(b1-4)GlcNAc(b1-2)Man(a1-3)[Fuc(a1-2)[GalNAc(a1-3)]Gal(b1-4)GlcNAc(b1-2)Man(a1-6)]Man(b1-4)GlcNAc(b1-4)GlcNAc
# In short: as §1
# [27] = molecular target: Fuc(a1-2)[GalNAc(a1-3)]Gal(b1-4)GlcNAc(b1-2)Man(a1-3)[Fuc(a1-2)[GalNAc(a1-3)]Gal(b1-4)GlcNAc(b1-2)Man(a1-6)]Man(b1-4)GlcNAc(b1-4)[Fuc(a1-6)]GlcNAc
# In short: as §1
# [28] = molecular target: Fuc(a1-2)[GalNAc(a1-3)]Gal(b1-4)GlcNAc(b1-3)Gal(b1-4)GlcNAc
# In short: as §1
# [29] = molecular target: Fuc(a1-2)[GalNAc(a1-3)]Gal(b1-4)GlcNAc(b1-3)Gal(b1-4)GlcNAc(b1-3)Gal(b1-4)GlcNAc
# In short: as §1
# [30] = molecular target: Fuc(a1-2)[GalNAc(a1-3)]Gal(b1-4)GlcNAc(b1-3)GalNAc
# In short: as §1
# [31] = molecular target: Fuc(a1-2)[GalNAc(a1-3)]Gal(b1-4)[Fuc(a1-3)]GlcNAc
# In short: as §1
# [32] = molecular target: Fuc(a1-2)[GalNAc(a1-3)]Gal(b1-4)[Fuc(a1-3)]GlcNAc(b1-3)GalNAc
# In short: as §1
# [33] = molecular target: Fuc(a1-2)[GalNAc(a1-4)]Gal(b1-4)GlcNAc
# In short: as §1
# [34] = molecular target: Fuc(a1-2)[GalNAc(b1-3)]Gal
# In short: as §1
# [35] = molecular target: Fuc(a1-3)GlcNAc
# In short: as §1
# [36] = molecular target: Fuc(a1-3)[Gal(b1-4)]Glc6S
# In short: as §1
# [37] = molecular target: Fuc(a1-3)[Gal(b1-4)]GlcNAc
# In short: as §1
# [38] = molecular target: Fuc(a1-3)[Gal(b1-4)]GlcNAc(b1-2)Man(a1-3)[Fuc(a1-3)[Gal(b1-4)]GlcNAc(b1-2)Man(a1-6)]Man(b1-4)GlcNAc(b1-4)GlcNAc
# In short: as §1
binder,measurement,setting,value
B1,glycan array binding signal (z-score),[1],0.034
same,glycan array binding signal (z-score),[2],-0.383
same,glycan array binding signal (z-score),[3],0.16
same,glycan array binding signal (z-score),[4],0.337
same,glycan array binding signal (z-score),[5],-0.243
same,glycan array binding signal (z-score),[6],0.577
same,glycan array binding signal (z-score),[7],0.285
same,glycan array binding signal (z-score),[8],-0.336
same,glycan array binding signal (z-score),[9],-0.412
same,glycan array binding signal (z-score),[10],-0.298
same,glycan array binding signal (z-score),[11],-0.198
same,glycan array binding signal (z-score),[12],0.011
same,glycan array binding signal (z-score),[13],-0.063
same,glycan array binding signal (z-score),[14],0.569
same,glycan array binding signal (z-score),[15],0.511
same,glycan array binding signal (z-score),[16],-0.244
same,glycan array binding signal (z-score),[17],-0.211
same,glycan array binding signal (z-score),[18],-0.164
same,glycan array binding signal (z-score),[19],-0.339
same,glycan array binding signal (z-score),[20],-0.613
same,glycan array binding signal (z-score),[21],-0.821
same,glycan array binding signal (z-score),[22],1.21
same,glycan array binding signal (z-score),[23],0.94
same,glycan array binding signal (z-score),[24],0.011
same,glycan array binding signal (z-score),[25],-0.851
same,glycan array binding signal (z-score),[26],-0.344
same,glycan array binding signal (z-score),[27],-0.51
same,glycan array binding signal (z-score),[28],-0.387
same,glycan array binding signal (z-score),[29],-0.766
same,glycan array binding signal (z-score),[30],0.21
same,glycan array binding signal (z-score),[31],1.26
same,glycan array binding signal (z-score),[32],0.747
same,glycan array binding signal (z-score),[33],-0.505
same,glycan array binding signal (z-score),[34],0.299
same,glycan array binding signal (z-score),[35],-0.706
same,glycan array binding signal (z-score),[36],0.41
same,glycan array binding signal (z-score),[37],-0.618
same,glycan array binding signal (z-score),[38],0.131
